PubChem BioAssay AID1259405 | NCATS | 2018
Shown is an unselected part of about 50,000 reagents tested. About 4,000 of them (8%) count as active. 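Mouse siRNA library applied to hamster cells; one well for each siRNA.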 A number with no mark means an inactive call. The numbers tell different reagents against one gene apart. No sequences are given here.

Screen: 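Knock-downs that lift recombinant protein yield in hamster ovary cells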 (primary screen)
Cells: Chinese hamster CHO-K1 ovary cells with stable secreted eGFP expression
Reagent: single siRNA against mouse genes, 0.8 pmol siRNA per well (2 µl of 400 nM stock)
Time to read-out: 3 days
Measured: 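Per-well intracellular GFP measured by laser scanning cytometry, plus viability from ATP luminescence, each relative to plate median of non-targeting control wells, in %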
Direction: GFP, % of control: higher = more GFP per well, higher productivity; viability (ATP), % of control: higher = more viable cells (more ATP)
Call rule: 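a knock-down is called active if GFP reaches 120% or more of non-targeting control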

| target gene | reagent | GFP, % of control | viability (ATP), % of control |
| --- | --- | --- | --- |
| Pakap (GeneID 677884) | 1 | 96.1 | 72.2 |
| Pakap (GeneID 677884) | 2 | 68.7 | 73 |
| Pakap (GeneID 677884) | 3 | 39.1 | 41 |
| Pakap (GeneID 677884) | 4 | 51.7 | 40 |
| Pakap (GeneID 677884) | 5 | 57.1 | 37.1 |
| Pakap (GeneID 677884) | 6 | 82.3 | 97.4 |
| Boll (GeneID 75388) | 1 | 58.6 | 124 |
| Boll (GeneID 75388) | 2 | 69.5 | 89.4 |
| Boll (GeneID 75388) | 3 | 77.4 | 60.5 |
| Or6z3 (GeneID 258917) | 1 | 67.6 | 60 |
| Or6z3 (GeneID 258917) | 2 | 84.1 | 83.9 |
| Or6z3 (GeneID 258917) | 3 | 57.7 | 79.9 |
| Pxmp2 (GeneID 19301) | 1 | 80 | 63.2 |
| Pxmp2 (GeneID 19301) | 2 | 79.2 | 95.1 |
| Pxmp2 (GeneID 19301) | 3 | 39.6 | 81.2 |
| Depdc1b (GeneID 218581) | 1 | 98.8 | 58.6 |
| Depdc1b (GeneID 218581) | 2 | 64.1 | 76.7 |
| Depdc1b (GeneID 218581) | 3 | 63 | 73.1 |
| Nkx3-2 (GeneID 12020) | 1 | 71.9 | 60.5 |
| Nkx3-2 (GeneID 12020) | 2 | 89.7 | 88.1 |
| Nkx3-2 (GeneID 12020) | 3 | 112 | 106 |
| Snrpb2 (GeneID 20639) | 1 | 184 (active) | 124 |
| Snrpb2 (GeneID 20639) | 2 | 47 | 65 |
| Or51k1 (GeneID 259088) | 1 | 110 | 74.9 |
| Or51k1 (GeneID 259088) | 2 | 122 (active) | 90.1 |
| Or51k1 (GeneID 259088) | 3 | 132 (active) | 65.7 |
| Lars1 (GeneID 107045) | 1 | 53.6 | 63.7 |
| Lars1 (GeneID 107045) | 2 | 106 | 104 |
| Jagn1 (GeneID 67767) | 1 | 50.2 | 60.3 |
| Jagn1 (GeneID 67767) | 2 | 89.4 | 108 |
| Jagn1 (GeneID 67767) | 3 | 71.2 | 132 |
| S100a6 (GeneID 20200) | 1 | 98.7 | 96.2 |
| S100a6 (GeneID 20200) | 2 | 67 | 87.6 |
| Atmin (GeneID 234776) | 1 | 107 | 86.2 |
| Atmin (GeneID 234776) | 2 | 73.8 | 77.6 |
| Atmin (GeneID 234776) | 3 | 72.1 | 72.7 |
| Bbof1 (GeneID 72873) | 1 | 45.3 | 29.5 |
| Bbof1 (GeneID 72873) | 2 | 61 | 41.6 |
| Bbof1 (GeneID 72873) | 3 | 75.9 | 97.1 |
| Peli3 (GeneID 240518) | 1 | 47.5 | 24.9 |
| Peli3 (GeneID 240518) | 2 | 59.9 | 71.1 |
| Peli3 (GeneID 240518) | 3 | 80.3 | 109 |
| Proser1 (GeneID 212127) | 1 | 72.1 | 79.1 |
| Proser1 (GeneID 212127) | 2 | 63.1 | 65.3 |
| Proser1 (GeneID 212127) | 3 | 74.8 | 70 |
| Sftpc (GeneID 20389) | 1 | 99 | 88.5 |
| Sftpc (GeneID 20389) | 2 | 58.9 | 71.3 |
| Sftpc (GeneID 20389) | 3 | 47.9 | 62.3 |
| Slc75a1 (GeneID 68294) | 1 | 96.3 | 85.7 |
| Slc75a1 (GeneID 68294) | 2 | 149 (active) | 93.3 |
| Slc75a1 (GeneID 68294) | 3 | 103 | 80.3 |
| Smagp (GeneID 207818) | 1 | 99.5 | 91.9 |
| Smagp (GeneID 207818) | 2 | 120 (active) | 117 |
| Smagp (GeneID 207818) | 3 | 128 (active) | 135 |
| Gls2 (GeneID 216456) | 1 | 77.4 | 92.8 |
| Gls2 (GeneID 216456) | 2 | 134 (active) | 90.4 |
| Gls2 (GeneID 216456) | 3 | 59.8 | 54.8 |
| Slc26a7 (GeneID 208890) | 1 | 70.3 | 65.6 |
| Slc26a7 (GeneID 208890) | 2 | 72.4 | 59.8 |
| Slc26a7 (GeneID 208890) | 3 | 54.5 | 50.5 |
| Dtna (GeneID 13527) | 1 | 53 | 54.3 |
| Dtna (GeneID 13527) | 2 | 61.7 | 79.4 |
| Psg25 (GeneID 114868) | 1 | 96 | 67.8 |
| Psg25 (GeneID 114868) | 2 | 19.8 | 26.6 |
| Psg25 (GeneID 114868) | 3 | 81.3 | 98.8 |
| Zfp260 (GeneID 26466) | 1 | 64.3 | 65.3 |
| Zfp260 (GeneID 26466) | 2 | 68.7 | 73.5 |
| Zfp260 (GeneID 26466) | 3 | 61 | 43.8 |
| Zfp629 (GeneID 320683) | 1 | 44.8 | 69.6 |
| Zfp629 (GeneID 320683) | 2 | 63.6 | 59.5 |
| Zfp629 (GeneID 320683) | 3 | 75.1 | 103 |
| Oas1a (GeneID 246730) | 1 | 75.5 | 75.7 |
| Oas1a (GeneID 246730) | 2 | 88.2 | 93.8 |
| Oas1a (GeneID 246730) | 3 | 42.8 | 39.2 |
| Cmah (GeneID 12763) | 1 | 74.5 | 94.8 |
| Cmah (GeneID 12763) | 2 | 65.5 | 74.2 |
| Cmah (GeneID 12763) | 3 | 58.9 | 87.5 |
| Vrk1 (GeneID 22367) | 1 | 72.7 | 96.6 |
| Vrk1 (GeneID 22367) | 2 | 57.6 | 64.3 |
| Vrk1 (GeneID 22367) | 3 | 82.8 | 78.4 |
| Atrx (GeneID 22589) | 1 | 104 | 120 |
| Atrx (GeneID 22589) | 2 | 78.7 | 51.8 |
| Atrx (GeneID 22589) | 3 | 108 | 87.9 |
| Mrm3 (GeneID 67390) | 1 | 81.7 | 101 |
| Mrm3 (GeneID 67390) | 2 | 74.9 | 87.4 |
| Mrm3 (GeneID 67390) | 3 | 83 | 81.3 |

Sorted by “GFP, % of control” (descending): some entries from above.
| target gene | reagent | GFP, % of control | viability (ATP), % of control |
| --- | --- | --- | --- |
| Psg25 (GeneID 114868) | 1 | 96 | 67.8 |
| Psg25 (GeneID 114868) | 3 | 81.3 | 98.8 |
| Zfp260 (GeneID 26466) | 2 | 68.7 | 73.5 |
| Zfp260 (GeneID 26466) | 1 | 64.3 | 65.3 |
| Dtna (GeneID 13527) | 2 | 61.7 | 79.4 |
| Zfp260 (GeneID 26466) | 3 | 61 | 43.8 |
| Dtna (GeneID 13527) | 1 | 53 | 54.3 |
| Zfp629 (GeneID 320683) | 1 | 44.8 | 69.6 |
| Psg25 (GeneID 114868) | 2 | 19.8 | 26.6 |
